Results are given in words; binding and its absence hold for the method and conditions named. In cells and extracts the contact can be indirect. Some results given as binding are weak or reduced against the parent protein; the word gives no strength. For some of these results: Where a sequence is shown, tags or fusion partners need not be part of it. One block for each substance: values may come before it.
Experiments:
[1] = molecular target: Flag-HINT1 wild type (histidine triad nucleotide-binding protein 1) (human) (UniProt P49773); assay: co-IP; tagged proteins coexpressed in HEK293T; IP with HA or Flag antibody and protein G agarose overnight at 4 °C in IP buffer (20 mM HEPES pH 7.0, 180 mM KCl, 0.2 mM EGTA, 1.5 mM MgCl2, 20% glycerol, 1% NP-40), western blot; for HINT1 with β-catenin also with coexpressed HA-SIRT1 WT or HY and/or CBP
[2] = molecular target: endogenous HINT1 (human (endogenous in DLD1, SW480, A375)) (UniProt P49773); assay: co-IP; endogenous proteins of DLD1 or SW480 cells immunoprecipitated and immunoblotted; IP buffer 20 mM HEPES pH 7.0, 180 mM KCl, 1% NP-40, overnight at 4 °C
[3] = molecular target: T1, Flag-HINT1 2KR (K21/30R), deacetylation mimetic mutant (human) (UniProt P49773); assay: co-IP; tagged proteins coexpressed in HEK293T; IP with HA or Flag antibody and protein G agarose overnight at 4 °C in IP buffer (20 mM HEPES pH 7.0, 180 mM KCl, 0.2 mM EGTA, 1.5 mM MgCl2, 20% glycerol, 1% NP-40), western blot; for HINT1 with β-catenin also with coexpressed HA-SIRT1 WT or HY and/or CBP
T1 sequence: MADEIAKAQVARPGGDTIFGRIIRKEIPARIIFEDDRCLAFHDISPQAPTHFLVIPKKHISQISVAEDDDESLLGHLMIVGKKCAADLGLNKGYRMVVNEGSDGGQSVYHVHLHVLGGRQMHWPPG

Amino acid sequences for entries named in this document (tags omitted).
UniProt Q92793: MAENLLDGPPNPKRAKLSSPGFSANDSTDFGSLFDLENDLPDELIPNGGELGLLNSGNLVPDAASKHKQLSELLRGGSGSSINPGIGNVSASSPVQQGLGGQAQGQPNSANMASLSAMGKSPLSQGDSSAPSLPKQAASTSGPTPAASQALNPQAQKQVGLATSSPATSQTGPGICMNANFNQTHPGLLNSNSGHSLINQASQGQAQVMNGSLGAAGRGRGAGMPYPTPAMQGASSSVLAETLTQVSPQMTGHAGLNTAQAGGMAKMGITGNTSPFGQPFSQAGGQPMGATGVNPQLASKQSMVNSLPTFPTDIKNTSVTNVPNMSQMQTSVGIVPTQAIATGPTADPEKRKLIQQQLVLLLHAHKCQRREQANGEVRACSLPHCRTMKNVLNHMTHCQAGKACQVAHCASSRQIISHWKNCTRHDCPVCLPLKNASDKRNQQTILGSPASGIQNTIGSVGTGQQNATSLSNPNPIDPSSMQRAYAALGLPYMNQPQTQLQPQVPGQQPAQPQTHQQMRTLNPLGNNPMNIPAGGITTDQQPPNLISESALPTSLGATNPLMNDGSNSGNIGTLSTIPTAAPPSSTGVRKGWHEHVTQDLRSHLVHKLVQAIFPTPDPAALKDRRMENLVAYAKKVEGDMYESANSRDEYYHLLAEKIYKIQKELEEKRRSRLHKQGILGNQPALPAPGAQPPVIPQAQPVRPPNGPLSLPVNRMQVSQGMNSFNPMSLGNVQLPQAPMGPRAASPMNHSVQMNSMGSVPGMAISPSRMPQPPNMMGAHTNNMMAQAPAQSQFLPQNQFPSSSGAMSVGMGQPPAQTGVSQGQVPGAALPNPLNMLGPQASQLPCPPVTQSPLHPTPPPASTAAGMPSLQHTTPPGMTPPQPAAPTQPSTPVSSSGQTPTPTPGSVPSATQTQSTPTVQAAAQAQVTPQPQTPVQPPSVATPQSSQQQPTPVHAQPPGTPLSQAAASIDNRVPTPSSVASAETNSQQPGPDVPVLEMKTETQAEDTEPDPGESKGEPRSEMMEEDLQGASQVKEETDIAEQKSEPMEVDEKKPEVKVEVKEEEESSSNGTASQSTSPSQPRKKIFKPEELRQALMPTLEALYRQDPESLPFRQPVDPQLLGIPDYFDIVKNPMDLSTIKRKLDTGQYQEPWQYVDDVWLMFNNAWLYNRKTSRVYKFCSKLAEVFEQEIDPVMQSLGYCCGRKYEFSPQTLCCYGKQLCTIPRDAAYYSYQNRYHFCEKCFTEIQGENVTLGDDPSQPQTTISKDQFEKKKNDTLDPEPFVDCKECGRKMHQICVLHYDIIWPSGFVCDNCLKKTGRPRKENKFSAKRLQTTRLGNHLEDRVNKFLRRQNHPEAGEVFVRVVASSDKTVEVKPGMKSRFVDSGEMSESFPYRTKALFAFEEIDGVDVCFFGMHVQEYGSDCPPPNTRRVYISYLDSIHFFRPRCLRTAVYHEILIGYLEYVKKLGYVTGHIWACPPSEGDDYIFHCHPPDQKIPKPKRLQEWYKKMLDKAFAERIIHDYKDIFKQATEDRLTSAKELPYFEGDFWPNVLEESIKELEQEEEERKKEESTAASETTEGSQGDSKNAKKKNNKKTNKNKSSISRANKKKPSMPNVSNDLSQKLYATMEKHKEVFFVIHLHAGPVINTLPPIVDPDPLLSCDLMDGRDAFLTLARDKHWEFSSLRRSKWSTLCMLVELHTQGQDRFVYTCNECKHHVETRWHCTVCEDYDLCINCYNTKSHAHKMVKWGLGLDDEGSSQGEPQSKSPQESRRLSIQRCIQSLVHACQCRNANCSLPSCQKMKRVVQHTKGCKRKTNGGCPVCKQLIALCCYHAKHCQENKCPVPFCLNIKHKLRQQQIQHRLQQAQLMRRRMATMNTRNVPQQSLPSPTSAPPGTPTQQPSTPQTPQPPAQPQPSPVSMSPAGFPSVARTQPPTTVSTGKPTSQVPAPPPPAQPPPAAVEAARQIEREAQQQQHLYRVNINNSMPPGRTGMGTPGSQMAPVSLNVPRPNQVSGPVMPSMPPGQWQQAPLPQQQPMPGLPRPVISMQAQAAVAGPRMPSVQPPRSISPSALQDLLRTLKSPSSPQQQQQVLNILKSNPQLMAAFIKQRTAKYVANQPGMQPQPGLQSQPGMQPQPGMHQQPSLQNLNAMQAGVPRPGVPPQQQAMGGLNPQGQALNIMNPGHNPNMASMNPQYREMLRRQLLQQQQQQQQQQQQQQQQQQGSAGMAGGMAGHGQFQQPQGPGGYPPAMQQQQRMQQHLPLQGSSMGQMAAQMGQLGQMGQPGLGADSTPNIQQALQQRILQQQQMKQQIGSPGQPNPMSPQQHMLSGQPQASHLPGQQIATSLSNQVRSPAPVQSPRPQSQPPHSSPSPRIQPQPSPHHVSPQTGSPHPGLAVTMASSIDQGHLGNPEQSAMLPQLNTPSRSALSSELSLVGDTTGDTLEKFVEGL
UniProt Q96EB6: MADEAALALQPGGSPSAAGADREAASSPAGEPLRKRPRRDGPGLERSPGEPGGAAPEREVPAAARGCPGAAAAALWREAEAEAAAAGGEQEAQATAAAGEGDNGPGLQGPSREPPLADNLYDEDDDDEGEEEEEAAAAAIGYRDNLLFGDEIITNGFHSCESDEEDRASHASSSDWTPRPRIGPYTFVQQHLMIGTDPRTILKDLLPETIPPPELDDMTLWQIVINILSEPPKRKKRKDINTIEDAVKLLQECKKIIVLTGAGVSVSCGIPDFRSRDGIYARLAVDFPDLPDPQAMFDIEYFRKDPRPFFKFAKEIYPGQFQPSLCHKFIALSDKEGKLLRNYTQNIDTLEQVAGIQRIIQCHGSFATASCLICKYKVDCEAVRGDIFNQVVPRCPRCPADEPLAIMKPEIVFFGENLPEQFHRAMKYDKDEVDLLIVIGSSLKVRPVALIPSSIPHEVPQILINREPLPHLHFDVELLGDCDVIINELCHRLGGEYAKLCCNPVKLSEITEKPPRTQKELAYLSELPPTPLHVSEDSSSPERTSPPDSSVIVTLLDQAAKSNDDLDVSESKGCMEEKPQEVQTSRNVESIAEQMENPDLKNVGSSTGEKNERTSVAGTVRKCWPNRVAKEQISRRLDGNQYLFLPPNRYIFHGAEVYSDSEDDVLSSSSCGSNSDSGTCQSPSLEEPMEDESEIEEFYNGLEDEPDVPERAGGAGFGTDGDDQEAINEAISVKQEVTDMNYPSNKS
UniProt P35222: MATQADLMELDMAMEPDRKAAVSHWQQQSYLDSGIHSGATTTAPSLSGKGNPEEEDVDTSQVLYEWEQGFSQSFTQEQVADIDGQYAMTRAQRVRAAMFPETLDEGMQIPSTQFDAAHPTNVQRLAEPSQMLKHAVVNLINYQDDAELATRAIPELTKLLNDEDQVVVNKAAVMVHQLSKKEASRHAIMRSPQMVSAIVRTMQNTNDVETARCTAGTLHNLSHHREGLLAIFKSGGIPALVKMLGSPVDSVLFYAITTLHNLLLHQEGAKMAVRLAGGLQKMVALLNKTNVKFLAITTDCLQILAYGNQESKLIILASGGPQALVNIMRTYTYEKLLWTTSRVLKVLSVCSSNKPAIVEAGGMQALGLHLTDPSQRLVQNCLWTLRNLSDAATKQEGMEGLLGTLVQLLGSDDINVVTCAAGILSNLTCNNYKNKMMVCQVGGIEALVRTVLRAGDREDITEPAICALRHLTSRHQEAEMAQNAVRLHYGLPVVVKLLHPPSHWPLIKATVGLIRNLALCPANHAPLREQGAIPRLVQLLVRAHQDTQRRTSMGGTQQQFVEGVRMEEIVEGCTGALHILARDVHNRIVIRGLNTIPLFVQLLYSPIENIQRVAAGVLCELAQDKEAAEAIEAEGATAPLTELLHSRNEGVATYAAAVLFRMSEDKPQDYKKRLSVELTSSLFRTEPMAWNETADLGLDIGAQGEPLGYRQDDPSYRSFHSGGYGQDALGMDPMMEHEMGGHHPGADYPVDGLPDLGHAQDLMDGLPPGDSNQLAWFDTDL
UniProt O75030: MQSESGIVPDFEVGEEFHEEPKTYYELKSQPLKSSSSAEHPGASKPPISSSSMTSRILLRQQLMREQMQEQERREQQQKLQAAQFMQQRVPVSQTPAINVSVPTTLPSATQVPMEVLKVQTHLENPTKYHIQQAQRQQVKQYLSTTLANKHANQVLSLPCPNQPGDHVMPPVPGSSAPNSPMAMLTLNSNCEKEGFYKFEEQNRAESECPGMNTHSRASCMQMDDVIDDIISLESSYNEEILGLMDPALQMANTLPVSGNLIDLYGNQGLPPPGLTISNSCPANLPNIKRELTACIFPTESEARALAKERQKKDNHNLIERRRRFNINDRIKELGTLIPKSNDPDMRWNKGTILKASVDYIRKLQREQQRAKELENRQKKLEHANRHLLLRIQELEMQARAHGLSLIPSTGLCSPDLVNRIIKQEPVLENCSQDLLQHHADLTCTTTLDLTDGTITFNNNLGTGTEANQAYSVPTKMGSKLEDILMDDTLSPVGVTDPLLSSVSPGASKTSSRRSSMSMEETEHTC

[4] = molecular target: endogenous CBP (human (endogenous in DLD1, SW480)) (UniProt Q92793); assay: co-IP; endogenous proteins of DLD1 or SW480 cells immunoprecipitated and immunoblotted; IP buffer 20 mM HEPES pH 7.0, 180 mM KCl, 1% NP-40, overnight at 4 °C
[5] = molecular target: endogenous SIRT1 (human (endogenous in SW480, DLD1)) (UniProt Q96EB6); assay: as above
[6] = molecular target: endogenous HINT1 (human (endogenous in DLD1, SW480, A375)) (UniProt P49773); assay: co-IP; endogenous HINT1 and β-catenin in DLD1 cells expressing Flag-SIRT1 WT or HY; IP and western blot
[7] = molecular target: Flag-HINT1 wild type (histidine triad nucleotide-binding protein 1) (human) (UniProt P49773); assay: co-IP; DLD1 cells transfected with Flag-HINT1; shCON or shSIRT1 knock-down, or EX527 (10 µM) and sirtinol (10 µM) for 12 h; IP and western blot
HA-CBP = HA-CBP (UniProt Q92793); assay: co-IP; tagged proteins coexpressed in HEK293T; IP with HA or Flag antibody and protein G agarose overnight at 4 °C in IP buffer (20 mM HEPES pH 7.0, 180 mM KCl, 0.2 mM EGTA, 1.5 mM MgCl2, 20% glycerol, 1% NP-40), western blot; for HINT1 with β-catenin also with coexpressed HA-SIRT1 WT or HY and/or CBP
HA-SIRT1 wild type = HA-SIRT1 wild type (UniProt Q96EB6); assay: as above
[8] = molecular target: T1, Flag-HINT1 2KR (K21/30R), deacetylation mimetic mutant (human); assay: co-IP; A375 cells transfected with Flag-HINT1 WT or 2KR; IP and western blot
[9] = molecular target: Flag-HINT1 wild type (histidine triad nucleotide-binding protein 1) (human) (UniProt P49773); assay: as above
[10] = molecular target: endogenous HINT1 (human (endogenous in DLD1, SW480, A375)) (UniProt P49773); assay: co-IP; endogenous HINT1 and MITF in A375 cells transfected with Flag-SIRT1 WT or HY; IP and western blot

binding [1]: binds
Substance: HA-CBP (from UniProt Q92793 1-2442) (enzyme)

binding [2]: binds
Substance: endogenous CBP (from UniProt Q92793 1-2442) (enzyme)

binding [3]: binds | binding [1]: binds
Substance: HA-β-catenin (from UniProt P35222 1-781)

binding [4]: binds | binding [5]: binds
Substance: endogenous HINT1 (from UniProt P49773 1-126)

binding [6]: binds | binding [7]: binds
Substance: endogenous β-catenin (from UniProt P35222 1-781)

binding (HA-CBP): binds | binding (HA-SIRT1 wild type): binds
Substance: Flag-HINT1 wild type (histidine triad nucleotide-binding protein 1) (from UniProt P49773 1-126)

binding [8]: binds | binding [9]: binds | binding [10]: binds
Substance: endogenous microphthalmia transcription factor (MITF) (from UniProt O75030 1-526)

— article PMC8080686
